From patent US6939855B2, “Anti-inflammatory compositions and method” (Elan Pharmaceuticals, Inc., priority 1997, dated 2005)
Some of these results come from one statement about several compounds together. At least one structure is not confirmed: it was looked up by name or label, or the drawing left a doubt.

Protein sequences, listed by entry. Tags and fused reporters are not part of them. Residues count along the entry.
UniProt Q13797, 30-1035: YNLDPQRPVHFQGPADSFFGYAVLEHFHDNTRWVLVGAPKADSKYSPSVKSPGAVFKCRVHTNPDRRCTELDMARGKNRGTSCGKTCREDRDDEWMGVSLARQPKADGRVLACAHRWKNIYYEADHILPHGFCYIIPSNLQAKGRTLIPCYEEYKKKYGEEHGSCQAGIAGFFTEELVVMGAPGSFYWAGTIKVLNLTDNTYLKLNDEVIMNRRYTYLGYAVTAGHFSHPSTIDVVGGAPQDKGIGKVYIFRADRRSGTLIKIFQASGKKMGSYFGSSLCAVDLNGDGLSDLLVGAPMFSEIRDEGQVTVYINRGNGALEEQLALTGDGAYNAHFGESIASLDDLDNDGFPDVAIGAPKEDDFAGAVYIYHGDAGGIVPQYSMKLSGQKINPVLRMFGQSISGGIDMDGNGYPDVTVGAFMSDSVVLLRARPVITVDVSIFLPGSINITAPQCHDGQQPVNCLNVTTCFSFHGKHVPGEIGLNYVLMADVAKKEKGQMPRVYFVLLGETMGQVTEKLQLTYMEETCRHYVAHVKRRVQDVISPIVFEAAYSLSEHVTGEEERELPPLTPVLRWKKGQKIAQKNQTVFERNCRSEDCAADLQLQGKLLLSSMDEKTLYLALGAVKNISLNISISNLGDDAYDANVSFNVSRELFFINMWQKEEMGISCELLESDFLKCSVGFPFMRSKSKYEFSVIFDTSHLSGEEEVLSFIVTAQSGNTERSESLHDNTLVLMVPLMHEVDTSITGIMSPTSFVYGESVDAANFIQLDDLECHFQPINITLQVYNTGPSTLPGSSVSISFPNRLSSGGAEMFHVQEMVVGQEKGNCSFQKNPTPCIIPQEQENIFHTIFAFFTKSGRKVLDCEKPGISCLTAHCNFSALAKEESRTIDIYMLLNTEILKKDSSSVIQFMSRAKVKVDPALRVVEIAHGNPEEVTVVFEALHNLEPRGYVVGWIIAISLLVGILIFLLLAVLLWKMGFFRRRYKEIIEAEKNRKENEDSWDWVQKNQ

Target: T1, alpha-9 integrin (Homo sapiens, UniProt P05556+Q13797)
T1 construct: SW480 cells were transfected with a plasmid containing an expressable coding region for the alpha-9 subunit; host or cells: SW480
Test: Induction of ligand-occupied epitope (15/7) on α9 transfected SW480 cells (binding saturation assay)
Type: cell-based

## Cc1ccc(S(=O)(=O)N2CCCC2C(=O)NC(Cc2ccc(OC(=O)N3CCNCC3)cc2)C(=O)O)cc1 (centres unmarked) [Compound 7, N-(N-p-toluenesulfonyl)prolyl-4-(piperazinoyloxy)phenylalanine]
Control mock-transfected cells
  induction of the ligand-occupied epitope (15/7) in control cells: not in control mock-transfected cells
α9 transfected cells
  concentration inducing the ligand-occupied epitope (15/7): less than 1 μM
